Paper PMC10657456
No constants are given. Whether binding was seen depends on the method and setting. In cells and extracts the contact can be indirect. These calls come from enrichment with a bait or labelling near it, and not all partners need be listed.

Chains of the proteins cited; added tags and fusions are not shown.
UniProt Q93009: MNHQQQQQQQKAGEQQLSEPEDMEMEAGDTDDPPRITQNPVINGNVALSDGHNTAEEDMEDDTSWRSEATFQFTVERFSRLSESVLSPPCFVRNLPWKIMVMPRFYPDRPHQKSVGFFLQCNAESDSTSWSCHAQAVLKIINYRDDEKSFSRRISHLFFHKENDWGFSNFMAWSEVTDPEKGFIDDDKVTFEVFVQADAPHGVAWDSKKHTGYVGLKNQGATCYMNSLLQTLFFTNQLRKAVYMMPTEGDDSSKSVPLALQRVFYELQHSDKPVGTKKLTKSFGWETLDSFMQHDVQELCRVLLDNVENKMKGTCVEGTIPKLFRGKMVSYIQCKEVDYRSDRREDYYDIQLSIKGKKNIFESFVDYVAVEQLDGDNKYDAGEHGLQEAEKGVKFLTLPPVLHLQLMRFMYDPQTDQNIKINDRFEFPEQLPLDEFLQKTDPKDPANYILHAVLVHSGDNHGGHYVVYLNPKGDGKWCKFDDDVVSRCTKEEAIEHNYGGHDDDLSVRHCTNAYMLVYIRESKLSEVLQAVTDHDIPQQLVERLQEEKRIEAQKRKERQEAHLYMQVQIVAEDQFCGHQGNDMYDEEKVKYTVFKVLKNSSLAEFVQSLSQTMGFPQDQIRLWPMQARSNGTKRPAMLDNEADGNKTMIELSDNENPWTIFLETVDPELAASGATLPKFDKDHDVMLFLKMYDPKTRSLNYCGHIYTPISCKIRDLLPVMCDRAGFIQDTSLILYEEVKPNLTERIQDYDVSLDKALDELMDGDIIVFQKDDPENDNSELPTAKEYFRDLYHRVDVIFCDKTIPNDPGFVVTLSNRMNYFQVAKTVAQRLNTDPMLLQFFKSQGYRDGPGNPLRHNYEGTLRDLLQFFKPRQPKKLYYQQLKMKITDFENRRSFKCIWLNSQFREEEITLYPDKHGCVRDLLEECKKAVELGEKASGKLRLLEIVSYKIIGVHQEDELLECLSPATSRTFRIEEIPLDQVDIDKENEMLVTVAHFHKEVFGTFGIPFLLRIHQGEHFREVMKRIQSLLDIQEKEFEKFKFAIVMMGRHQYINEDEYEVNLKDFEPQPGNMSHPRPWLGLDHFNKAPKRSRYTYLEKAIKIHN
UniProt P09874: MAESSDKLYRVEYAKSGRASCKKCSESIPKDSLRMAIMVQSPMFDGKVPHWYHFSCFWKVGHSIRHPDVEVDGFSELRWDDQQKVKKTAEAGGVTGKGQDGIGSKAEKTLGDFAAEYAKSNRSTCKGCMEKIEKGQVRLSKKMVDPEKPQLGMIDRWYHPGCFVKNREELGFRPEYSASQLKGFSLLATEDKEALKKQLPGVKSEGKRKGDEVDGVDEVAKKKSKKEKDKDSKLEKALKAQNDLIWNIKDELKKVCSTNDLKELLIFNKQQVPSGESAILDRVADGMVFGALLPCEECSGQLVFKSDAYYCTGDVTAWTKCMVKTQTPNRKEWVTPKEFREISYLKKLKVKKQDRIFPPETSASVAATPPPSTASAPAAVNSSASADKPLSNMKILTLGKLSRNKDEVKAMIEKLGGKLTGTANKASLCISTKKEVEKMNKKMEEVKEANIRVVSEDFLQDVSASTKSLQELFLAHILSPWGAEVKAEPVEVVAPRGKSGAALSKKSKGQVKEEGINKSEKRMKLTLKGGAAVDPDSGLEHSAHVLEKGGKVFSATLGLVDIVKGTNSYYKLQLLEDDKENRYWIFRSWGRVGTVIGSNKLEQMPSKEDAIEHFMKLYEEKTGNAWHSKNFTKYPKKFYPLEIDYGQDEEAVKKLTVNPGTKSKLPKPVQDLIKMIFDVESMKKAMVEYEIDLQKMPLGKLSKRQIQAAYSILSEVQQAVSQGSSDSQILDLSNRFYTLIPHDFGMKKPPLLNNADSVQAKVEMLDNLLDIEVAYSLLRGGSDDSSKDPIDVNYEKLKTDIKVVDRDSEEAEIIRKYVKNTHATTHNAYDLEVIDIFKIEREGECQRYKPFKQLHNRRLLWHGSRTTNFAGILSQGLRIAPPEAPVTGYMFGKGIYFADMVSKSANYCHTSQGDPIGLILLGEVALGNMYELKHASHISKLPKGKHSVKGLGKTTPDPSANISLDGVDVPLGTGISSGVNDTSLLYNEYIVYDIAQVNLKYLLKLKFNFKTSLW
UniProt P18887: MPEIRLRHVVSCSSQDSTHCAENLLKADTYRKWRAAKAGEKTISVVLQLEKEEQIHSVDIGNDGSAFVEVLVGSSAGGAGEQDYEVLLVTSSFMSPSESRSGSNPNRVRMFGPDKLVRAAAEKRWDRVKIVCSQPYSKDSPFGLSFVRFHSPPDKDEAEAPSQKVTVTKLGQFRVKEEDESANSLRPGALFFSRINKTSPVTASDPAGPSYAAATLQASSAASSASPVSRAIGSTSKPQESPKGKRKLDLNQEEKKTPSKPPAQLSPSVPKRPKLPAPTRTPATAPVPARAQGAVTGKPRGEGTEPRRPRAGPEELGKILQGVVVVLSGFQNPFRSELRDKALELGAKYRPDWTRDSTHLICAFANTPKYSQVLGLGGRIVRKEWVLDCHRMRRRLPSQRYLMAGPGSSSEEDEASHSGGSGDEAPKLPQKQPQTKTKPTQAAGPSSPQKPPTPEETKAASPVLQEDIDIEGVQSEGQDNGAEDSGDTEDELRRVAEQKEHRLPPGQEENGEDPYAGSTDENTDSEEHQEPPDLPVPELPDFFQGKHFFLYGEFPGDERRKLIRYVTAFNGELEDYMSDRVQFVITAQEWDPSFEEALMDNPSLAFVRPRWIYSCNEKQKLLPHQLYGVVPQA

T1: Topoisomerase 3β (TOP3B), endogenous (human (endogenous in HEK293 and HCT116)) (UniProt O95985)
T1 sequence: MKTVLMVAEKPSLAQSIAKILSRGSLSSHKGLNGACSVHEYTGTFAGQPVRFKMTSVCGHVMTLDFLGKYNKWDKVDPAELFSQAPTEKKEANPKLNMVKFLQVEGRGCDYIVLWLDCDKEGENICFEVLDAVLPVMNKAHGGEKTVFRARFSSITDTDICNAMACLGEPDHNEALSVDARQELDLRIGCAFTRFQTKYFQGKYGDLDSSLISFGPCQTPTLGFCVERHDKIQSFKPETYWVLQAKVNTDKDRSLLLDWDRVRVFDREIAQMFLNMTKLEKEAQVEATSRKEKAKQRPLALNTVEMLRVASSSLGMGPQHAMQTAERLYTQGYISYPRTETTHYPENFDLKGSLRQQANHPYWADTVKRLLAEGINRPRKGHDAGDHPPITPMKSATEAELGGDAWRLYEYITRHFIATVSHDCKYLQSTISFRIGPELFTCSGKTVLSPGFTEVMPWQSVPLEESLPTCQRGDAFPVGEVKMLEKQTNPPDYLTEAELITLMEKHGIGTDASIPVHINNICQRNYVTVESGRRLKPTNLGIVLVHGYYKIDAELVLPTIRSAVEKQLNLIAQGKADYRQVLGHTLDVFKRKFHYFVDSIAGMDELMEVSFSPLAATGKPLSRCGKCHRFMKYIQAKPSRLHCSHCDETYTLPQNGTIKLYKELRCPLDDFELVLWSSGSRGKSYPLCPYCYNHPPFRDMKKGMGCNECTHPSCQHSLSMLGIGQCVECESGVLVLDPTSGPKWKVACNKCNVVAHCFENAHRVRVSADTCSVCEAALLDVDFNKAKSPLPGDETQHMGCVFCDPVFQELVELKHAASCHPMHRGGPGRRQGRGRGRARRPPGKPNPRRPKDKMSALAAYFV


Legend:
[1] = biological target: T1, Topoisomerase 3β (TOP3B), endogenous (human (endogenous in HEK293 and HCT116)); assay: affinity purification with mass spectrometry; endogenous TOP3B immunoprecipitated from HEK293 cells, LC-MS/MS; hits with PSM value > 10
[2] = biological target: T1, Topoisomerase 3β (TOP3B), endogenous (human (endogenous in HEK293 and HCT116)); assay: affinity purification with mass spectrometry; TOP3B IP-MS in the absence of TDRD3 (Supplementary Fig. 5a); cells not named

Molecule | binding [1] | binding [2]
USP7, endogenous (from UniProt Q93009 1-1102) (enzyme) | binds | 
PARP1, endogenous (from UniProt P09874 1-1014) (enzyme) |  | binds
XRCC1, endogenous (from UniProt P18887 1-633) |  | binds

Second part, the molecule after the results:

binding [1] | binding [2] | Molecule
 | binds | LIG3, endogenous (enzyme, UniProt P49916 43-1009) LLHGHPLFLRRKPVLSFQGSHLRSRATYLVFLPGLHVGLCSGPCEMAEQRFCVDYAKRGTAGCKKCKEKIVKGVCRIGKVVPNPFSESGGDMKEWYHIKCMFEKLERARATTKKIEDLTELEGWEELEDNEKEQITQHIADLSSKAAGTPKKKAVVQAKLTTTGQVTSPVKGASFVTSTNPRKFSGFSAKPNNSGEAPSSPTPKRSLSSSKCDPRHKDCLLREFRKLCAMVADNPSYNTKTQIIQDFLRKGSAGDGFHGDVYLTVKLLLPGVIKTVYNLNDKQIVKLFSRIFNCNPDDMARDLEQGDVSETIRVFFEQSKSFPPAAKSLLTIQEVDEFLLRLSKLTKEDEQQQALQDIASRCTANDLKCIIRLIKHDLKMNSGAKHVLDALDPNAYEAFKASRNLQDVVERVLHNAQEVEKEPGQRRALSVQASLMTPVQPMLAEACKSVEYAMKKCPNGMFSEIKYDGERVQVHKNGDHFSYFSRSLKPVLPHKVAHFKDYIPQAFPGGHSMILDSEVLLIDNKTGKPLPFGTLGVHKKAAFQDANVCLFVFDCIYFNDVSLMDRPLCERRKFLHDNMVEIPNRIMFSEMKRVTKALDLADMITRVIQEGLEGLVLKDVKGTYEPGKRHWLKVKKDYLNEGAMADTADLVVLGAFYGQGSKGGMMSIFLMGCYDPGSQKWCTVTKCAGGHDDATLARLQNELDMVKISKDPSKIPSWLKVNKIYYPDFIVPDPKKAAVWEITGAEFSKSEAHTADGISIRFPRCTRIRDDKDWKSATNLPQLKELYQLSKEKADFTVVAGDEGSSTTGGSSEENKGPSGSAVSRKAPSKPSASTKKAEGKLSNSNSKDGNMQTAKPSAMKVGEKLATKSSPVKVGEKRKAADETLCQTKVLLDIFTGVRLYLPPSTPDFSRLRRYFVAFDGDLVQEFDMTSATHVLGSRDKNPAAQQVSPEWIWACIRKRRLVAPC
binds |  | USP39, endogenous (protein, UniProt Q53GS9 1-565) MSGRSKRESRGSTRGKRESESRGSSGRVKRERDREREPEAASSRGSPVRVKREFEPASAREAPASVVPFVRVKREREVDEDSEPEREVRAKNGRVDSEDRRSRHCPYLDTINRSVLDFDFEKLCSISLSHINAYACLVCGKYFQGRGLKSHAYIHSVQFSHHVFLNLHTLKFYCLPDNYEIIDSSLEDITYVLKPTFTKQQIANLDKQAKLSRAYDGTTYLPGIVGLNNIKANDYANAVLQALSNVPPLRNYFLEEDNYKNIKRPPGDIMFLLVQRFGELMRKLWNPRNFKAHVSPHEMLQAVVLCSKKTFQITKQGDGVDFLSWFLNALHSALGGTKKKKKTIVTDVFQGSMRIFTKKLPHPDLPAEEKEQLLHNDEYQETMVESTFMYLTLDLPTAPLYKDEKEQLIIPQVPLFNILAKFNGITEKEYKTYKENFLKRFQLTKLPPYLIFCIKRFTKNNFFVEKNPTIVNFPITNVDLREYLSEEVQAVHKNTTYDLIANIVHDGKPSEGSYRIHVLHHGTGKWYELQDLQVTDILPQMITLSEAYIQIWKRRDNDETNQQGA
